Data reported in patent US8450281B2 (Debiopharm S.A., priority 2007, dated 2013).
Some peptides are written in HELM: one residue between dots, names in brackets for other building blocks, links after the first $.

Assay: general procedure: solution-phase peptide synthesis; TFFH/DIPEA (fragment coupling); PyAOP/sym-collidine (cyclisation)
[1] = late stage modification step, HPLC

Row | Substance | step yield (late stage modification step) | other results
1 | Boc-D-MeAla-EtVal-Val-MeLeu-Ala-D-Ala-MeLeu-MeLeu-MeVal-MeBmt(OAc)-Abu-NMe-CH2—CH2—OH | 81% | –
2 | Ph-NH—C(S)— MeLeu-Val-MeLeu-Ala-D-Ala-MeLeu-MeLeu-MeVal-MeBmt(OAc)-Abu-Sar-OMe | 90% yield | –
3 | MeBmt(OAc)-CsA | 92% | –
4 | H-Val-MeLeu-Ala-D-Ala-MeLeu-MeLeu-MeVal-MeBmt(OAc)-Abu-Sar-OMe | 61% yield | final HPLC purity [1]: 99%
5 | PEPTIDE1{[MeBmt].[Abu].[D-MeAla].[EtVal].V.[MeLeu].A.[dA].[MeLeu].[MeLeu].[MeVal]}$PEPTIDE1,PEPTIDE1,1:R1-11:R2$$$V2.0 | – | final HPLC purity (cyclisation step, HPLC): 100%; cyclisation yield (cyclisation step, on linear precursor): 59%
6 | H-D-MeAla-EtVal-Val-MeLeu-Ala-D-Ala-MeLeu-MeLeu-MeVal-MeBmt-Abu-OH | 64% | crude HPLC purity [1]: 86%
7 | H-MeLeu-Val-MeLeu-Ala-D-Ala-MeLeu-MeLeu-MeVal-MeBmt(OAc)-Abu-Sar-OMe | 76% | final HPLC purity [1]: 98%
8 | Boc-D-MeAla-EtVal-Val-MeLeu-Ala-D-Ala-MeLeu-MeLeu-MeVal-MeBmt(OAc)-Abu-Sar-OMe | – | step yield (coupling step): 90%
